The text below walks through data of patent US20020076800A1.

Results are given in words; binding and its absence hold for the method and conditions named. Some entries that bind do so weakly or less than the wild type. Tags and fused reporters may be left off the sequences shown.

The assay addresses T1, Human α2Macroglobulin (human) (UniProt P01023).
T1 sequence (looked up): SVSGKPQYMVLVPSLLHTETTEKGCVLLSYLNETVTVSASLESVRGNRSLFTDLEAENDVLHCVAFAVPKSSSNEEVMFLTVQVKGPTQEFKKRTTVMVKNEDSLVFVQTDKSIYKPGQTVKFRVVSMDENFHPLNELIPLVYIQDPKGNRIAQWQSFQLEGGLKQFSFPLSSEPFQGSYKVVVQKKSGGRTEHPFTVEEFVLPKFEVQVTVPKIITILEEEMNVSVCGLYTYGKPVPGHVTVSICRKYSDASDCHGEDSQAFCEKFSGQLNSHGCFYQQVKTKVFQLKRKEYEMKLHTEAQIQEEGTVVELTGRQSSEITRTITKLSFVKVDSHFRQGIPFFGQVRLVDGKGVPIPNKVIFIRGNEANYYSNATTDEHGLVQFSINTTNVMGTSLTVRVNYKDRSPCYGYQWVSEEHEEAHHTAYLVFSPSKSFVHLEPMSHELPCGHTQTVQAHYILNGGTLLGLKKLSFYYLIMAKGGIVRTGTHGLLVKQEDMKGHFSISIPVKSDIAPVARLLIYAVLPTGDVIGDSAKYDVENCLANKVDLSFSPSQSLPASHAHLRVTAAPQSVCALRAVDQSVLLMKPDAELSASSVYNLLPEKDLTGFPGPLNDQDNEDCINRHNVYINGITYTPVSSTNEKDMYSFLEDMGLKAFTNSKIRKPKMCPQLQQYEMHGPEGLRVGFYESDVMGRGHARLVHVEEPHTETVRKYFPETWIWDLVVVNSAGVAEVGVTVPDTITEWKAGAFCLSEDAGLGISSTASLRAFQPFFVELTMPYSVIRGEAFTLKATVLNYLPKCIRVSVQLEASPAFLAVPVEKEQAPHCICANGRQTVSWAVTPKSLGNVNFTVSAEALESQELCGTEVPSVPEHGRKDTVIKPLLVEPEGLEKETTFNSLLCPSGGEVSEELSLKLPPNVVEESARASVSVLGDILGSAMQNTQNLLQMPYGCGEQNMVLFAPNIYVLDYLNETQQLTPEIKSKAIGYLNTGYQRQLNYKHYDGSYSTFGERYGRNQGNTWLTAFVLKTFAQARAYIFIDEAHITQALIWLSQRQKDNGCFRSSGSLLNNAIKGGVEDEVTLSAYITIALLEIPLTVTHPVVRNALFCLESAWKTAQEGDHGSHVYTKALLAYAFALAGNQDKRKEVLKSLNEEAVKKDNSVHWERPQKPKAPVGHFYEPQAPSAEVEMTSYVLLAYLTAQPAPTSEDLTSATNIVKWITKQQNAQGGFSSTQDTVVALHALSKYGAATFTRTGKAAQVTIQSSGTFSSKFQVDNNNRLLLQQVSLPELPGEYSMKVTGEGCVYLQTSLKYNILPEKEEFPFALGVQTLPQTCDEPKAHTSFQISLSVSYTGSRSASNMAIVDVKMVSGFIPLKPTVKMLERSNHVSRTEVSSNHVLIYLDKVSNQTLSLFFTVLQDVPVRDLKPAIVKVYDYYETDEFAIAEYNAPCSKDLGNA
In words: α2-macroglobulin trapping, protein gel.

B1: HipHum 35 construct no.2 (recombinant HH35 protein, catalytic domain only, with a six histidine tag at the amino terminal) (enzyme)
chain: HHHHHHRRSPRAPLSLSRRGWQPRGYPDGGAAQAFSKRTLSWRLLGEALSSQLSVADQRRIVALAFRMWSEVTPLDFREDLAAPGAAVDIKLGFGRGRHLGCPRAFDGSGQEFAHAWRLGDIHFDDDEHFTPPTSDTGISLLKVAVHEIGHVLGLPHTYRTGSIMQPNYIPQEPAFELDWSDRKAIQKLY
For the molecule B1, the binding entry is reported as “binds”.
